Data taken from PubChem BioAssay AID743266 (National Center for Advancing Translational Sciences (NCATS), 2014).
Hit rate of the full screen: of about 410,000 compounds, about 310 (0.076%) were called active. The inconclusive results got no clear call from the source; some entries with a clear call stand among them for comparison. The call rests on the fitted dose curve; in most records, active means well fitted activation curve with a large enough effect; inconclusive means small, poorly fitted or top-dose-only effect, or another doubt; inactive means no such curve, though single readings can be large or run the other way. A potency beside an inconclusive call is a rough fit, not a confirmed value.

Protein sequences, listed by entry. Tags and fused reporters are not part of them. Lines headed by an entry give the natural chain unless they say otherwise; changes in a name come on top.
UniProt Q03431: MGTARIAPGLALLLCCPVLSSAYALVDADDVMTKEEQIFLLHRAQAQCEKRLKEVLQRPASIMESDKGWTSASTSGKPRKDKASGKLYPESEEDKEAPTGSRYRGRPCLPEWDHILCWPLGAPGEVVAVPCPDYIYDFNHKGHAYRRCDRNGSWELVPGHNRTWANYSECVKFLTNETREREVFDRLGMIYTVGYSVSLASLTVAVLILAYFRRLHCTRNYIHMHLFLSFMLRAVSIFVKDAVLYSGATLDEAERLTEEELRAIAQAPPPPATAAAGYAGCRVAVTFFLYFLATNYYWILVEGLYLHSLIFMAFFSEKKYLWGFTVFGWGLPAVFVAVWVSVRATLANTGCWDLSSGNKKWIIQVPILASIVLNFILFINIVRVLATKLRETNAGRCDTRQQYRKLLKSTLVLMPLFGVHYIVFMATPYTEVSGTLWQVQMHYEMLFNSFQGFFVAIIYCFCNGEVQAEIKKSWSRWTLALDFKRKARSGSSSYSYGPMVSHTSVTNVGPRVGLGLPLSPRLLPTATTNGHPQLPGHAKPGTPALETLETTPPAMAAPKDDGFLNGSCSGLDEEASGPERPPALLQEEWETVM

Target: Parathyroid hormone/parathyroid hormone-related peptide receptor (Homo sapiens) (UniProt Q03431)
Assay: qHTS for PTHR1 Agonists: Primary Screen; further: nearly all actives have a fitted effect of over 55% in size
Settings: HEK293 GP2 PTHR1 cells, GloSensor cAMP luminescence, 1 h; activation: at 115 µM (top of the series) unless noted; series mostly up to 115 µM
How it was run: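 HEK-293-derived GP2 cells expressing PTHR1 and a GloSensor cAMP reporter, 3,000/well, plated overnight, given luciferin plus IBMX (each 0.5 mM as added) for 1 h at 37 °C, then compound for 1 h at 37 °C. Luminescence was read after 15 min at room temperature.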
Potency means the concentration at half of the fitted maximal effect.

activation, inactive:
CCc1ccn2cc(-c3cc(-c4ccccc4)no3)nc2c1 -39.8%
Cc1cccc(NC(=O)Cn2cnc3ccc(S(=O)(=O)N4CCC(C)CC4)cc3c2=O)n1 -6.5%
COc1ccc(S(=O)(=O)N2CCOCC2)cc1NC(=O)CSc1nnc(C2CC2)n1C -16.7%
CS(=O)(=O)c1nc(-c2ccccc2)cc(-c2ccccc2)c1C#N -2.59% [at 57.5 µM]
COc1ccc(-c2cn3nc(SCC(=O)Nc4ccccc4F)ccc3n2)cc1 -33.3%
O=[N+]([O-])c1ccc(N/N=C/c2cccc(O)c2O)c(S(=O)(=O)N2CCOCC2)c1 -29.4%
CCCOc1ccc(F)cc1-c1cc(C(=O)Nc2ccc(OC)c(OC)c2)[nH]n1 -8.98%
S=C(NCCC(c1ccccc1)c1ccccc1)Nc1cccc(Cl)c1 -17.2% [at 57.5 µM]
CCOC(=O)C1=NNC(C(=O)c2ccccc2)C1c1ccc(Cl)cc1 (stereo not drawn) -0.618%

activation, inconclusive:
CC(C)CN(CC(C)C)S(=O)(=O)N1CCC(C(=O)NCc2cccs2)CC1 35.3% [activator] [at 57.5 µM]
CCn1c(C(=O)N2CCC(Cc3ccccc3)CC2)cc2sccc21 31.7% [activator] [at 57.5 µM]
Cc1ccc(S(=O)(=O)Nc2ccc3cn[nH]c3c2)cc1C 45.6% [activator]
COc1ccccc1OC(=O)Cc1cccc2ccccc12 33.2% [activator]
O=c1cc[nH]c2c(C(F)(F)F)cccc12 19.2% [activator] [at 57.5 µM]
Cc1ccc(S(=O)(=O)N2C[C@H]3C(=O)C[C@@H](c4ccccc4)N(S(=O)(=O)c4ccc(C)cc4)[C@H]3C[C@H]2c2cccc3ccccc23)cc1 33% [activator]
O=C(O)COc1ccc2oc3c(c2c1)CCCC3 32% [activator]

As a working copy, two of the compounds above.
activation, inconclusive:
O=c1cc[nH]c2c(C(F)(F)F)cccc12 19.2% [activator] [at 57.5 µM]
Cc1ccc(S(=O)(=O)N2C[C@H]3C(=O)C[C@@H](c4ccccc4)N(S(=O)(=O)c4ccc(C)cc4)[C@H]3C[C@H]2c2cccc3ccccc23)cc1 33% [activator]

Next part.

Potency, inconclusive:
Oc1c(CN2CCCCC2)cc(COCc2ccccc2)c2cccnc12 31.6 µM [activator, single point]
Cc1ccccc1NC(=O)c1c([N+](=O)[O-])cnn1C 112 µM [activator, single point]
O=C(CC1C(=O)NCCN1Cc1ccoc1)NCCc1ccc(Cl)cc1 (stereo not drawn) 126 µM [activator, single point]
CCOc1ccc(NC(=O)CSc2nnc(CCNC(=O)c3ccc(OC)cc3)n2C)cc1 1.78 µM [activator, partial curve, poor fit]
COc1ccc(N2C(=O)c3ccc(C(=O)Nc4ccccc4OC)cc3C2=O)cc1 15.8 µM [activator, partial curve]
O=c1c2[nH]cnc2n(-c2ccc(F)cc2)c(=O)n1Cc1ccccc1 35.5 µM [activator, partial curve, poor fit]
CCn1c(CC(=O)Nc2ccccc2)nnc1SCC(=O)NC1=NCCS1 56.2 µM [activator, partial curve, poor fit]
COc1cc2nc(-c3ccccc3C)oc(=O)c2cc1OC 14.1 µM [activator, partial curve, poor fit]
CCN(CC)c1ccc(NC(=O)CN2C(=O)c3cccnc3Oc3ccccc32)c(C)c1 44.7 µM [activator, partial curve, poor fit]
Cc1cccc(CCN(C(=O)Cc2cccs2)C(C(=O)NC2CCCCC2)c2cccnc2)c1 (stereo not drawn) 112 µM [activator, partial curve, poor fit]
O=C(COc1ccc(C(=S)N2CCOCC2)cc1)Nc1ccccc1C(F)(F)F 126 µM [activator, single point]
Cc1ccc(S(=O)(=O)N2CCN(C(=O)COC(=O)COc3ccc(Cl)cc3)CC2)c(C)c1 12.6 µM [activator, partial curve]
Cc1ccc(NC(=O)CN2CC(C)SC2=NC2CCCCC2)cc1 (stereo not drawn) 79.4 µM [activator, partial curve, poor fit]
CC(NC(=O)C(=O)N1CCCCC1)C(c1cccs1)N1CCN(C)CC1 (stereo not drawn) 141 µM [activator, single point]
COc1cc(CC(=O)OCC(=O)N2CCCCC2C)cc(OC)c1OC (stereo not drawn) 141 µM [activator, single point]
CCOC(=O)CNC(=O)CSc1nc2c(C)cccc2cc1CC 3.16 µM [activator, full curve, poor fit]
CCCC(=O)N/N=C1\CS(=O)(=O)N(C)c2ccsc21 14.1 µM [activator, partial curve]
O=C(CN1CCN(c2nc(-c3ccc(Cl)cc3)cs2)CC1)NCc1ccco1 5.01 µM [activator, full curve, poor fit]
Cc1cccc(OCC(=O)NCc2ccc3c(c2)CCN3C(=O)c2ccc(Cl)cc2)c1 50.1 µM [activator, partial curve, poor fit]
COc1cccc(C(=O)C2CN(c3ccccc3)CC2c2ccc(Cl)cc2)c1 (stereo not drawn) 39.8 µM [activator, single point]
Cc1ccc2nc3c(cc2c1)c(NC(=O)C(C)(C)C)nn3CC(C)C 89.1 µM [activator, partial curve, poor fit]
CC1CN(c2ccc(Oc3ccccc3)cc2)c2nc3c(c(=O)[nH]c(=O)n3C)n2C1 (stereo not drawn) 126 µM [activator, single point]
CCOC(=O)c1c2ccc(OCC(=O)NN)cc2n2ccccc12 141 µM [activator, single point]

outcome, inactive:
c1ccc(N2CCN(Cc3ccsc3)CC2)nc1 inactive [at 57.5 µM]
COc1cc(NC(=S)N2CCN(C/C=C/c3ccccc3)CC2)cc(OC)c1
CC1=CC(C)(C)n2c(O)c(C3=NC(=S)NC3=O)c3cc(OC(=O)c4cccc5ccccc45)cc1c32
O=C(CNc1cccc2ccccc12)N/N=C/C=C/c1ccco1
